Values from PubChem BioAssay AID602196 (INSERM, 2012).

- Assay: 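Genes whose knock-down alters cisplatin killing of lung cancer cells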
- Cells: human A549 lung cancer cells
- Reagent: siRNA pair against human genes
- Duration: 48 h transfection before cisplatin; time from cisplatin to read-out not stated
- Conditions: cisplatin at a dose killing half of control-siRNA cells; exact dose and duration not given
- Measurement: 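Shift in cisplatin death relative to control siRNA, from -50 (all cells die) to +50 (no cells die); siRNAs harmful on their own scored 0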
- Direction: two-siRNA summed score (-2 to +2): higher = both siRNAs protect from cisplatin killing; -2 means both sensitise
- Call rule: 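Each siRNA scores 0 if harmful alone by LDH or WST-1, otherwise +1 if it reduces and -1 if it increases cisplatin killing; a gene is active when both siRNAs agree (sum +2 or -2)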
- Calls: active = both siRNAs shift cisplatin killing the same way; inactive = no consistent shift, or siRNA harmful alone
Shown is a random part of about 23,000 reagents. 455 of all reagents (2%) were called active. 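Active includes both protection and sensitisation; some change values fall well beyond the stated -50 to +50 range.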 Not all columns of the deposit are shown. Reagent sequences are not shown. Not stated in the record: the amount of reagent.

| target gene | two-siRNA summed score (-2 to +2) | Call |
| --- | --- | --- |
| CIDEB | 0 | inactive |
| BFSP1 | 0 | inactive |
| SLC39A5 | 2 | active |
| OR1L1 | 1 | inactive |
| ZNF492 | 1 | inactive |
| KRT77 | 0 | inactive |
| SFMBT2 | 1 | inactive |
| FLJ13305 | 0 | inactive |
| PHKA2 | 1 | inactive |
| LENG9 | 0 | inactive |
| CTTNBP2 | 0 | inactive |
| CCT6A | 0 | inactive |
| ARHGEF40 | -1 | inactive |
| LOC442428 | 1 | inactive |
| LOC440665 | 2 | active |
| SLC35F6 | 0 | inactive |
| LOC164118 | 0 | inactive |
| CRLF2 | 0 | inactive |
| LOC401715 | 1 | inactive |
| KCNQ2 | -1 | inactive |
| MRPL45 | 0 | inactive |
| TSPAN17 | 0 | inactive |
| LOC440477 | 2 | active |

Ordered by “two-siRNA summed score (-2 to +2)” (high to low): some entries from above.
| target gene | two-siRNA summed score (-2 to +2) | Call |
| --- | --- | --- |
| LOC440477 | 2 | active |
| TSPAN17 | 0 | inactive |
